Three molecules from patent publication US20230078642A1 can be followed below.

Chains of the proteins cited; added tags and fusions are not shown.
UniProt Q9WTL8: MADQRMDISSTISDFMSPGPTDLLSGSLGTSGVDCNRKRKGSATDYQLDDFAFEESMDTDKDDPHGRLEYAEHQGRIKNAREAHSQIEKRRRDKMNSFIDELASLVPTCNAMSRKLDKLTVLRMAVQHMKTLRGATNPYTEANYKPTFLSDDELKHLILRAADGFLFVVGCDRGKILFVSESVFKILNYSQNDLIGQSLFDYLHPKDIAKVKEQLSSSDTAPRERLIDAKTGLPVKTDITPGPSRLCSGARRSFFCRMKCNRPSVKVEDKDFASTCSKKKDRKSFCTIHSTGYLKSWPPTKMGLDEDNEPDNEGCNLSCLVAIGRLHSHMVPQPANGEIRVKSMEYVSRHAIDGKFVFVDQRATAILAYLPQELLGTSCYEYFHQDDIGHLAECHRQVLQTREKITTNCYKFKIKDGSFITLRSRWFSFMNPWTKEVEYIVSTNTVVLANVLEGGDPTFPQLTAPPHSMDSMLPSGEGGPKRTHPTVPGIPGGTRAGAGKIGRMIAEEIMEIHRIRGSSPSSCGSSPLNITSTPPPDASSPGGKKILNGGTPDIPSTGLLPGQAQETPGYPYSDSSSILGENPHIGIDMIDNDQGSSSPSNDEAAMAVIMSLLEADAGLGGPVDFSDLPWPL

Assay [1] concerns the target BMAL1 (tag-free, mBmal1) (mouse) (UniProt Q9WTL8). The assay is described as follows: co-immunoprecipitation with anti-FLAG resin from HEK 293T lysate, western blot with anti-BMAL1; DMSO, 10 µM and 40 µM of the small molecule CLK8. In general terms: Immunoblotting shows a protein as a band on a membrane.
Assay [2] has the same target. The assay is described as follows: pull-down with biotinylated CLK8 (small molecule bait) from HEK 293T lysate, western blot; wild type compared with CLOCK-F80A-K220A.
Assay [3] has the same target. The assay is described as follows: pull-down with biotinylated CLK8 (small molecule bait) on NeutrAvidin resin from whole cell lysate, western blot.
The target is the same in assay [4]. The assay is described as follows: co-immunoprecipitation with anti-FLAG resin from HEK 293T lysate, western blot with anti-BMAL1; with and without the small molecule CLK8.

These are yes or no findings as the source states them, for the method shown. Binding seen in cells or lysates may run through a third protein. Some entries that bind do so weakly or less than the wild type. Tags and fused reporters may be left off the sequences shown.

B1: FLAG-tagged CLOCK (wild type) (protein, not shown: small tags and cut ends)
chain: MLFTVSCSKMSSIVDRDDSSIFDGLVEEDDKDKAKRVSRNKSEKKRRDQFNVLIKELGSMLPGNARKMDKSTVLQKSIDFLRKHKEITAQSDASEIRQDWKPTFLSNEEFTQLMLEALDGFFLAIMTDGSIIYVSESVTSLLEHLPSDLVDQSIFNFIPEGEHSEVYKILSTHLLESDSLTPEYLKSKNQLEFCCHMLRGTIDPKEPSTYEYVKFIGNFKSLNSVSSSAHNGFEGTIQRTHRPSYEDRVCFVATVRLATPQFIKEMCTVEEPNEEFTSRHSLEWKFLFLDHRAPPIIGYLPFEVLGTSGYDYYHVDDLENLAKCHEHLMQYGKGKSCYYRFLTKGQQWIWLQTHYYITYHQWNSRPEFIVCTHTVVSYAEVRAERRRELGIEESLPETAADKSQDSGSDNRINTVSLKEALERFDHSPTPSASSRSSRKSSHTAVSDPSSTPTKIPTDTSTPPRQHLPAHEKMVQRRSSFSSQSINSQSVGSSLTQPVMSQATNLPIPQGMSQFQFSAQLGAMQHLKDQLEQRTRMIEANIHRQQEELRKIQEQLQMVHGQGLQMFLQQSNPGLNFGSVQLSSGNSSNIQQLAPINMQGQVVPTNQIQSGMNTGHIGTTQHMIQQQTLQSTSTQSQQNVLSGHSQQTSLPSQTQSTLTAPLYNTMVISQPAAGSMVQIPSSMPQNSTQSAAVTTFTQDRQIRFSQGQQLVTKLVTAPVACGAVMVPSTMLMGQVVTAYPTFATQQQQSQTLSVTQQQQQQSSQEQQLTSVQQPSQAQLTQPPQQFLQTSRLLHGNPSTQLILSAAFPLQQSTFPQSHHQQHQSQQQQQLSRHRTDSLPDPSKVQPQ
As to B1, the binding result in assay [1] is given as “binds”.

B2: CLOCK (tag-free, hsClock, wild type) (protein)
chain: MLFTVSCSKMSSIVDRDDSSIFDGLVEEDDKDKAKRVSRNKSEKKRRDQFNVLIKELGSMLPGNARKMDKSTVLQKSIDFLRKHKEITAQSDASEIRQDWKPTFLSNEEFTQLMLEALDGFFLAIMTDGSIIYVSESVTSLLEHLPSDLVDQSIFNFIPEGEHSEVYKILSTHLLESDSLTPEYLKSKNQLEFCCHMLRGTIDPKEPSTYEYVKFIGNFKSLNSVSSSAHNGFEGTIQRTHRPSYEDRVCFVATVRLATPQFIKEMCTVEEPNEEFTSRHSLEWKFLFLDHRAPPIIGYLPFEVLGTSGYDYYHVDDLENLAKCHEHLMQYGKGKSCYYRFLTKGQQWIWLQTHYYITYHQWNSRPEFIVCTHTVVSYAEVRAERRRELGIEESLPETAADKSQDSGSDNRINTVSLKEALERFDHSPTPSASSRSSRKSSHTAVSDPSSTPTKIPTDTSTPPRQHLPAHEKMVQRRSSFSSQSINSQSVGSSLTQPVMSQATNLPIPQGMSQFQFSAQLGAMQHLKDQLEQRTRMIEANIHRQQEELRKIQEQLQMVHGQGLQMFLQQSNPGLNFGSVQLSSGNSSNIQQLAPINMQGQVVPTNQIQSGMNTGHIGTTQHMIQQQTLQSTSTQSQQNVLSGHSQQTSLPSQTQSTLTAPLYNTMVISQPAAGSMVQIPSSMPQNSTQSAAVTTFTQDRQIRFSQGQQLVTKLVTAPVACGAVMVPSTMLMGQVVTAYPTFATQQQQSQTLSVTQQQQQQSSQEQQLTSVQQPSQAQLTQPPQQFLQTSRLLHGNPSTQLILSAAFPLQQSTFPQSHHQQHQSQQQQQLSRHRTDSLPDPSKVQPQ
Take B2: the binding result in assay [2] and in assay [3] was “binds” in each case.

B3: FLAG-tagged CLOCK-F80A-K220A mutant (protein, not shown: small tags and cut ends)
chain: MLFTVSCSKMSSIVDRDDSSIFDGLVEEDDKDKAKRVSRNKSEKKRRDQFNVLIKELGSMLPGNARKMDKSTVLQKSIDALRKHKEITAQSDASEIRQDWKPTFLSNEEFTQLMLEALDGFFLAIMTDGSIIYVSESVTSLLEHLPSDLVDQSIFNFIPEGEHSEVYKILSTHLLESDSLTPEYLKSKNQLEFCCHMLRGTIDPKEPSTYEYVKFIGNFASLNSVSSSAHNGFEGTIQRTHRPSYEDRVCFVATVRLATPQFIKEMCTVEEPNEEFTSRHSLEWKFLFLDHRAPPIIGYLPFEVLGTSGYDYYHVDDLENLAKCHEHLMQYGKGKSCYYRFLTKGQQWIWLQTHYYITYHQWNSRPEFIVCTHTVVSYAEVRAERRRELGIEESLPETAADKSQDSGSDNRINTVSLKEALERFDHSPTPSASSRSSRKSSHTAVSDPSSTPTKIPTDTSTPPRQHLPAHEKMVQRRSSFSSQSINSQSVGSSLTQPVMSQATNLPIPQGMSQFQFSAQLGAMQHLKDQLEQRTRMIEANIHRQQEELRKIQEQLQMVHGQGLQMFLQQSNPGLNFGSVQLSSGNSSNIQQLAPINMQGQVVPTNQIQSGMNTGHIGTTQHMIQQQTLQSTSTQSQQNVLSGHSQQTSLPSQTQSTLTAPLYNTMVISQPAAGSMVQIPSSMPQNSTQSAAVTTFTQDRQIRFSQGQQLVTKLVTAPVACGAVMVPSTMLMGQVVTAYPTFATQQQQSQTLSVTQQQQQQSSQEQQLTSVQQPSQAQLTQPPQQFLQTSRLLHGNPSTQLILSAAFPLQQSTFPQSHHQQHQSQQQQQLSRHRTDSLPDPSKVQPQ
Take B3: the binding entry in assay [4] was “binds”.
